US20220195047A1 (TCRCURE BIOPHARMA, published 2022)
No constants are given. Whether binding was seen depends on the method and setting. Some binding calls cover weakened binding; strength is not graded here.

Chains of the proteins cited; added tags and fusions are not shown. Lines headed by an entry give the natural chain unless they say otherwise; changes in a name come on top.
UniProt Q15116: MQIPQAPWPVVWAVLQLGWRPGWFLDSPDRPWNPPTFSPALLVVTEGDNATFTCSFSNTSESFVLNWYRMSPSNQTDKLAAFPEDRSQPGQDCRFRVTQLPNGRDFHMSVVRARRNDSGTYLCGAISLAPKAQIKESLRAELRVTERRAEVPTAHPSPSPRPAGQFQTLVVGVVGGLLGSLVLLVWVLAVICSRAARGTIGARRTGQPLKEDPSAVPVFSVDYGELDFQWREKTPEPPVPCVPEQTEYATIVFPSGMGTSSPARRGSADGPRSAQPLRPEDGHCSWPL

Key:
[1] = target: human PD-1 protein (hPD-1) on cell surface of 293T-PD-1 cells (human) (UniProt Q15116); test: immunocytochemistry staining of cells stably expressing PD-1; 293T cells as negative control (1:900)
[2] = target: human PD-1 protein (hPD-1) on cell surface of 293T-PD-1 cells (human) (UniProt Q15116); test: flow cytometry on 293T-PD-1 cells, 4 C for 60 min, secondary FITC-anti-Mouse IgG F(ab')2; y axis hPD-1%
[3] = target: T1, recombinant biotinylated human PD-1 (human, UniProt Q15116 25-170, limits assumed, biotinylated (site not stated)); test: ELISA: antibody coated at 5 ug/ml, 5-fold serial dilution of biotinylated rhPD-1 added, detection Sav-HRP; the concentration axis is that of rhPD-1
T1 construct: also called rhPD-1; recombinant human PD-1 protein

[4] = target: human PD-1 protein (hPD-1) on cell surface of 293T-PD-1 cells (human) (UniProt Q15116); test: flow cytometry on 293T-PD-1 cells
[5] = target: human PD-1 protein (hPD-1) on cell surface of 293T-PD-1 cells (human) (UniProt Q15116); test: Western blot of lysates of HEK-293T cells transfected with PDCD1 cDNA
[6] = target: human PD-1 protein (hPD-1) on cell surface of 293T-PD-1 cells (human) (UniProt Q15116); test: Western blot of HEK293T lysates, 5 ug per lane, SDS-PAGE, antibody 1:2000
[7] = target: human PD-1 protein (hPD-1) on cell surface of 293T-PD-1 cells (human) (UniProt Q15116); test: flow cytometry on cells stably expressing PD-1 (1:50)
[8] = target: human PD-1 protein (hPD-1) on cell surface of 293T-PD-1 cells (human) (UniProt Q15116); test: immunofluorescent staining of PDCD1-stable-transfected HEK293T cells, nuclei labelled with Hoechst33342; 293T cells as negative control (1:100)

Measured: binding

B1: F02 anti-PD-1 antibody (antibody, V domains shown)
VH: QQPGAELVKPGASVKLSCRASGYTFTNYYLYWVKQRPGQGLEWIGGINPSNGGTNFNEKFRGKATLTVDKSSSTAYMQLSSLTSEDSAVYFCTRRDYNYDGGFDYWGQGSTLTVSS
VL: DIVLTQSPASLAVSLGQRATISCRASKSVSTSGFNYMHWYQQKPGQPPKLLIYLASNLDSGVPARFSGSGSGTDFTLNIHPVEEEDAATYYCQHGRELPLTFGAGTKLELRR
notes: Mouse monoclonal antibody from hybridoma clone #11, detected with anti-mouse IgG F(ab')2; Only the variable domains are tied to F02; also called anti-PD-1 antibody from hybridoma clone #11; clone #11
binds: all assays above
